Measurements as given in the supplement of paper PMC12067093, “Discovery and optimisation of a covalent ligand for TRIM25 and its application to targeted protein ubiquitination” (Chemical Science, 2025).
Some of the results follow.

Chains of the proteins cited; added tags and fusions are not shown. Lines headed by an entry give the natural chain unless they say otherwise; changes in a name come on top.
UniProt P32119: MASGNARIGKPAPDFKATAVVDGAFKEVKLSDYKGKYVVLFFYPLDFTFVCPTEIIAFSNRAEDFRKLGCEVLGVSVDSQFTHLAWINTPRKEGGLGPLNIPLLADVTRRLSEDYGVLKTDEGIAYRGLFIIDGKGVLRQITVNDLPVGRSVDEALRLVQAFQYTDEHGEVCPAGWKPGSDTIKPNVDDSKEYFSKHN
UniProt O95685: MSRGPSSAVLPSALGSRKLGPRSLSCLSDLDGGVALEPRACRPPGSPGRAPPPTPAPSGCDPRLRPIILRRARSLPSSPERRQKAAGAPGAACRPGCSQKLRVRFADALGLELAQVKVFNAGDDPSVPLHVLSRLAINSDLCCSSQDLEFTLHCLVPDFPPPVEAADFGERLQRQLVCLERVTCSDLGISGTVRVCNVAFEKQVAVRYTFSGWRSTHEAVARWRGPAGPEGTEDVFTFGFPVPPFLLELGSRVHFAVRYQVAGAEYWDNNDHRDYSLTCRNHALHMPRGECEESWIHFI
UniProt P30041: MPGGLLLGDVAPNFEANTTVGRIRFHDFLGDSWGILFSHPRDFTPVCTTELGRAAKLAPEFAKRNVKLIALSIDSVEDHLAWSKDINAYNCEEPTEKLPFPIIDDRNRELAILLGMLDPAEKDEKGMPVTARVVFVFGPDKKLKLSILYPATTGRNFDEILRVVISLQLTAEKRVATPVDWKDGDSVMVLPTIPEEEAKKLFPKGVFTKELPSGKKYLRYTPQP
UniProt Q8TCU6, whole entry, looked up: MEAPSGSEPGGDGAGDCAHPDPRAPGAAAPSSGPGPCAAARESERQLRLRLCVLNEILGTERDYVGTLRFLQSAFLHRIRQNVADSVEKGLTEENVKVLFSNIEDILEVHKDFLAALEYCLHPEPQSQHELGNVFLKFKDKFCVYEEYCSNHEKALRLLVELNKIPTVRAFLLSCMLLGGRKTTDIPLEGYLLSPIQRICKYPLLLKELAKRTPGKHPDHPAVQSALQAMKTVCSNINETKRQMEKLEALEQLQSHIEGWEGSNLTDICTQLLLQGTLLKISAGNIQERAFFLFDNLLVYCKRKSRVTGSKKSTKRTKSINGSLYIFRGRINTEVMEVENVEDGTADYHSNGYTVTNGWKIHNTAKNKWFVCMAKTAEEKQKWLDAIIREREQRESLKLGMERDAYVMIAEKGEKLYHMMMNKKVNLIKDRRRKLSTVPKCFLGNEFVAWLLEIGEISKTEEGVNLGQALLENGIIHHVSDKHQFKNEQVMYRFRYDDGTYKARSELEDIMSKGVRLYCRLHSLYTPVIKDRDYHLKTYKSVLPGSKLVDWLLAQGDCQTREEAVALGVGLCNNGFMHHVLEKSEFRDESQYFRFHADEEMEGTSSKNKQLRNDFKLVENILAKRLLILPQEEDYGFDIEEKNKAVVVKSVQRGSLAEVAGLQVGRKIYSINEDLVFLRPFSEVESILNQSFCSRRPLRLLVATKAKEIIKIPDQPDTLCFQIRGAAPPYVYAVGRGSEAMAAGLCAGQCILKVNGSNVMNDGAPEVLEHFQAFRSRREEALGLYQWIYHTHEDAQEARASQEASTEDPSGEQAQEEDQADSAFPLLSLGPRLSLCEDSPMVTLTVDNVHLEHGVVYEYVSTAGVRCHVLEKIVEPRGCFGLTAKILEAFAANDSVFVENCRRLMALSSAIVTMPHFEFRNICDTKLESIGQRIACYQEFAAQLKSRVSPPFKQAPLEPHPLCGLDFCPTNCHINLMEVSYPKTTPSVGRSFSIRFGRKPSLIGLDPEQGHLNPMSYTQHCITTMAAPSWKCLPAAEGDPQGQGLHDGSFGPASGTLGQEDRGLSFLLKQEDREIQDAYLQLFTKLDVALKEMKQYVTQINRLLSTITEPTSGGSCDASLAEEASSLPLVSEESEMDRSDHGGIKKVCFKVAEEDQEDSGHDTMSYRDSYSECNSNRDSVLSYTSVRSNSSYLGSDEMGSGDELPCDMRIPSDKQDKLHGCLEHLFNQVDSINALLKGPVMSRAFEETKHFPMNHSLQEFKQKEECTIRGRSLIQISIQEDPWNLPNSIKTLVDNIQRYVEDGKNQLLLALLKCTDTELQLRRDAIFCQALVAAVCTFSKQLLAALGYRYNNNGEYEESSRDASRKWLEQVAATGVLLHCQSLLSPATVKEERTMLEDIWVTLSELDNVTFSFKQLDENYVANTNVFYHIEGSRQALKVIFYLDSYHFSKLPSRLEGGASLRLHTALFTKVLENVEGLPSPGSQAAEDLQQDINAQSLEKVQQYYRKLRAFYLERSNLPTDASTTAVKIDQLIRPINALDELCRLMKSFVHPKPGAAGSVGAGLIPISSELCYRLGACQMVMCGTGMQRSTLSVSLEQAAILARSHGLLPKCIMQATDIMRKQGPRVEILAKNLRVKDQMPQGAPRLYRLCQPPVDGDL
UniProt P30153, whole entry, looked up: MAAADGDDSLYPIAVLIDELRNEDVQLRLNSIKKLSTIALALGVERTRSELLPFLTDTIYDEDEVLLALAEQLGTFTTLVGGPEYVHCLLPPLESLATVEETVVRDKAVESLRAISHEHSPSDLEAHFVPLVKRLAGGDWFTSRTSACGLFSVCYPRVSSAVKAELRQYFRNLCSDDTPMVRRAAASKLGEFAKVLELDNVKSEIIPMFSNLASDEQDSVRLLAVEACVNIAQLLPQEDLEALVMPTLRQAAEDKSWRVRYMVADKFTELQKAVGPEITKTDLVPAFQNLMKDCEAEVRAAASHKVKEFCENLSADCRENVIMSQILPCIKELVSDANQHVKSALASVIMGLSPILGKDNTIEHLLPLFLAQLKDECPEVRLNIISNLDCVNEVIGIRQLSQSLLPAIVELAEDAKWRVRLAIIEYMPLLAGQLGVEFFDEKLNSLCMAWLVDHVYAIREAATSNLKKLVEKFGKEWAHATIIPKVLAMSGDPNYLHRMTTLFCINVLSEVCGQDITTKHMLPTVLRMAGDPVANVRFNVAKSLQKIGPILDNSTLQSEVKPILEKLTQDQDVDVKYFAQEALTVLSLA
UniProt O75170: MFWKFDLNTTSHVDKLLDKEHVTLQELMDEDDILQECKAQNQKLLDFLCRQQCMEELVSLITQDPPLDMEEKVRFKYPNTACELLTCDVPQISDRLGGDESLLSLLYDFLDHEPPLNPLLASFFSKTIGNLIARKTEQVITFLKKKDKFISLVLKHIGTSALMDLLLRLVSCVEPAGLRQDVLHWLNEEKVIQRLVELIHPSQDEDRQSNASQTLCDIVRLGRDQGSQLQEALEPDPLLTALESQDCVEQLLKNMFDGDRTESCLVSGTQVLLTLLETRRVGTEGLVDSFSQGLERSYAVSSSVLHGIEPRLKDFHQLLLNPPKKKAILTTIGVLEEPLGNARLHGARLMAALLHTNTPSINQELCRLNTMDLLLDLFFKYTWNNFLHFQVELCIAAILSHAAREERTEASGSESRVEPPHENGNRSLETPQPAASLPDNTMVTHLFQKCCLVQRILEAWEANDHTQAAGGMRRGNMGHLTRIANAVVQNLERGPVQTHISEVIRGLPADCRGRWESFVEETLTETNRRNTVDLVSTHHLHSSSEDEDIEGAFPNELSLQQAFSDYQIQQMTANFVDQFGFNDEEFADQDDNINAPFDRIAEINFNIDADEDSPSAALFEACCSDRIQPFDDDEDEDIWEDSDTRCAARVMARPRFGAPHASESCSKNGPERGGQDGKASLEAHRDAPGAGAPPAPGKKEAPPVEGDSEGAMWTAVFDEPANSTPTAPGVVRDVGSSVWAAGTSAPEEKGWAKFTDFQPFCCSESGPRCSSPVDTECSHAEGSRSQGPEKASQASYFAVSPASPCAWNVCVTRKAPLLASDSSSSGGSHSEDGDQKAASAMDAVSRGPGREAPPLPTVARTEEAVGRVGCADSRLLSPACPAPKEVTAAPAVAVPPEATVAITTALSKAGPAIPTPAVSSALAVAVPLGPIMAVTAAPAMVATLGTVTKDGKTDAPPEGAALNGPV
UniProt Q9NY27: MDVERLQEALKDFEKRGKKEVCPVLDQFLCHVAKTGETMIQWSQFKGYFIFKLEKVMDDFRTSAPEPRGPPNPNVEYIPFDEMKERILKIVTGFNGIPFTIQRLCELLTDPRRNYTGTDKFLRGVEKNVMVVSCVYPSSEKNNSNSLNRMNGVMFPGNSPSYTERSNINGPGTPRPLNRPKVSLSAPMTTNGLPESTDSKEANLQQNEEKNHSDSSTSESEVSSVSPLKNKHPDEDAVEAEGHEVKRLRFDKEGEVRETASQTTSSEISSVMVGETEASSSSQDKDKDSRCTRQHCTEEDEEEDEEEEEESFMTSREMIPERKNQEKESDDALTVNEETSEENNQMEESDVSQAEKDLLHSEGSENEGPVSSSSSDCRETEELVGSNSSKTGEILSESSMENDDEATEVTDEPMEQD
UniProt O00743: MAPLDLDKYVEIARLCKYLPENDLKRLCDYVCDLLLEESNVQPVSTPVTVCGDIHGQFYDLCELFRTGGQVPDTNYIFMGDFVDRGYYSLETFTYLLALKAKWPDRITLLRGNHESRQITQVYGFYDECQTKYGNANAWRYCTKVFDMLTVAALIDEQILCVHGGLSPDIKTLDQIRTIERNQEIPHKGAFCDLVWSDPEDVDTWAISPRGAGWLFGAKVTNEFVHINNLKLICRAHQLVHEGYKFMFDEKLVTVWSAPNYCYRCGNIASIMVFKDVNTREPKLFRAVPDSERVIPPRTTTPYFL
UniProt O75688: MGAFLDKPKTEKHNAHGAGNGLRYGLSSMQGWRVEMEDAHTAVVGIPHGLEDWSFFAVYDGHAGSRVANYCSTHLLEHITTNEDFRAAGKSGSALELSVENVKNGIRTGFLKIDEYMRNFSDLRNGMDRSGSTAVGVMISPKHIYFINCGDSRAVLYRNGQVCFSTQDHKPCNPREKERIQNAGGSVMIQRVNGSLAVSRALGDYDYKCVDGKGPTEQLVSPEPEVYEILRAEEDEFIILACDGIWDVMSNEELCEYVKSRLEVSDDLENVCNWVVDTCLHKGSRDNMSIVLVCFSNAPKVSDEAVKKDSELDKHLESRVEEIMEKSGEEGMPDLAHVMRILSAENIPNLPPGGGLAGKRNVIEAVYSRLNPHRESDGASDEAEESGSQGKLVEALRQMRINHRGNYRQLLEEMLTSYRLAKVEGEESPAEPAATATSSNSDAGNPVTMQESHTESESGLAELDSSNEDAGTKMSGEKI
UniProt P60510: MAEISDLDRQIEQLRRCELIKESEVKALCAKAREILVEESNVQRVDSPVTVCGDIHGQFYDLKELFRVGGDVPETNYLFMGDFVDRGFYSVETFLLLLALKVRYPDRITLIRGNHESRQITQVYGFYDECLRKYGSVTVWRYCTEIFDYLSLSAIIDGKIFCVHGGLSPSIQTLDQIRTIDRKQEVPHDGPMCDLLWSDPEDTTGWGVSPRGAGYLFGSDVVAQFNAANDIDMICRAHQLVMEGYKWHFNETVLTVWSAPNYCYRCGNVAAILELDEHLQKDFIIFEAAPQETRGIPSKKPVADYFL
UniProt Q9HCU5: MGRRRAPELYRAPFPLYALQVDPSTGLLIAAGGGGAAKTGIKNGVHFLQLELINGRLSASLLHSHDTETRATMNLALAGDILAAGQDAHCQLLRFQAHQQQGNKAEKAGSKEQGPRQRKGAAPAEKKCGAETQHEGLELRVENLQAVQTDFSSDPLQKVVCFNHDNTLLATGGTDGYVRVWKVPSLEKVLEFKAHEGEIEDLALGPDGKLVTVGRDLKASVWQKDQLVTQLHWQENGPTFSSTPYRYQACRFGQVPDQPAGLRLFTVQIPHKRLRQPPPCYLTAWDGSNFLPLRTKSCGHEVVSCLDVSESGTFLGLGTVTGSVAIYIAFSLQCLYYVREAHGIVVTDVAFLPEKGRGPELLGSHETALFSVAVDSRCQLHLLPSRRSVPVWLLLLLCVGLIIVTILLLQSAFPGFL
UniProt P30154, whole entry, looked up: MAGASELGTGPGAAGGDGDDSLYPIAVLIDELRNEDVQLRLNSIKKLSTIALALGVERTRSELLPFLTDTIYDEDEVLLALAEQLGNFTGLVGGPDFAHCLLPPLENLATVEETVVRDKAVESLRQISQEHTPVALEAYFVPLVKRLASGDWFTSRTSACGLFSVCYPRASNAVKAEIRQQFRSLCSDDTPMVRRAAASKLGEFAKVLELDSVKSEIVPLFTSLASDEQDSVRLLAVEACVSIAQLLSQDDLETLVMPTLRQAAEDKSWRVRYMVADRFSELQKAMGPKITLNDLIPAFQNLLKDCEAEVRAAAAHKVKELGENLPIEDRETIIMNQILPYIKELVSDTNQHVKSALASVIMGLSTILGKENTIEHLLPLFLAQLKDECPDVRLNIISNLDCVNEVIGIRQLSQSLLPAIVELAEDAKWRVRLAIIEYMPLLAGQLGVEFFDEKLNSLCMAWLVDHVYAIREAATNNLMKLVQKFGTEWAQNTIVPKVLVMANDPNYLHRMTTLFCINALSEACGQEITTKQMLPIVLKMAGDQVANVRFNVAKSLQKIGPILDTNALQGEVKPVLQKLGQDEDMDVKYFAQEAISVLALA

Compound: Cc1cc(ccc1-c1ccccc1)C(=O)N1CCCN(CC1)C(=O)CCl [compound 10]
Test: probe-labelled cysteine peptide fold change vs DMSO (competition) (log2 fold change); higher = less target engagement (more negative = stronger competition)
Settings: THP-1, incubation time: 4 h
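Note: competitive profiling in live THP-1 cells: cysteine peptides tagged with an iodoacetamide desthiobiotin (IA-DTB) probe, intensity after compound treatment relative to DMSO-treated cells.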

Target | probe-labelled cysteine peptide fold change (10 µM) | probe-labelled cysteine peptide fold change (50 µM)
PPP1R8_Q12972_67_NPDLCDFTIDHQSCSR (UniProt Q12972) | 0.00106 | 0.115
PPP4R3B_Q5MIZ7_98_ICQVQGK (UniProt Q5MIZ7) | 0.138 | 0.0388
PPP6R3_Q5H9R7_82_YKYPNISCELLTSDVSQMNDR (UniProt Q5H9R7) | 0.215 | -0.137
PRDX2_P32119_172_LVQAFQYTDEHGEVCPAGWK (UniProt P32119) | -0.113 | 0.251
PPP1R3D_O95685_279_YQVAGAEYWDNNDHRDYSLTCR (UniProt O95685) | -0.00214 | -0.126
PRCP_P42785_233_SGPHCSESIHR (UniProt P42785) | 0.268 | 0.331
PREPL_Q4J6C6_184_TEDSEASTCVIIK (UniProt Q4J6C6) | 0.111 | 0.235
PPIP5K2_O43314_615_SANMNGLLDSDSDSLSSCQQR (UniProt O43314) | -0.167 | -0.252
PRDX6_P30041_47_DFTPVCTTELGR (UniProt P30041) | -0.122 | -0.164
PPT1_P50897_128_CPSPPMINLISVGGQHQGVFGLPR (UniProt P50897) | -0.152 | 0.286
PREX1_Q8TCU6_52_LCVLNEILGTER (UniProt Q8TCU6) | 0.212 | 0.2
PPT1_P50897_152+160_CPGESSHICDFIRK (UniProt P50897) | -0.599 | -0.767
PPP2R1A_P30153_504+512_MTTLFCINVLSEVCGQDITTK (UniProt P30153) | 0.378 | 0.195
PPP6R2_O75170_880_LLSPACPAPK (UniProt O75170) | -0.471 | 0.267
PPP1R3D_O95685_291_GECEESWIHFI (UniProt O95685) | -0.0489 | -0.485
PPP4R2_Q9NY27_30_EVCPVLDQFLCHVAK (UniProt Q9NY27) | 0.0564 | -0.311
PPP1R27_Q86WC6_79_VSLATIHPSGLAALHEAVLSGNLECVK (UniProt Q86WC6) | 0.381 | 0.28
PPWD1_Q96BP3_512_LFPVECPK (UniProt Q96BP3) | -0.232 | -0.00453
PPIP5K2_O43314_164_ECNLIEGEDHVEVNGEVFQKPFVEK (UniProt O43314) | 0.0459 | -0.425
PPP6R2_O75170_264_NMFDGDRTESCLVSGTQVLLTLLETR (UniProt O75170) | -0.0678 | -0.136
PPP6C_O00743_129_QITQVYGFYDECQTK (UniProt O00743) | 0.0334 | 0.309

Target | probe-labelled cysteine peptide fold change (10 µM) | probe-labelled cysteine peptide fold change (50 µM)
PPP6R3_Q5H9R7_37_ELMDEEDVLQECK (UniProt Q5H9R7) | -0.174 | -0.125
PPP1R3D_O95685_279_DYSLTCR (UniProt O95685) | 0.323 | 0.684
PPME1_Q9Y570_312_GLSNLFLSCPIPK (UniProt Q9Y570) | 0.0321 | 0.192
PPP6C_O00743_262_LVTVWSAPNYCYR (UniProt O00743) | 0.0166 | -0.0458
PPP1CC_P36873_62_ICGDIHGQYYDLLR (UniProt P36873) | 0.0848 | 0.122
PPP6R3_Q5H9R7_519_NTVDLVTTCHIHSSSDDEIDFK (UniProt Q5H9R7) | 0.257 | -0.0983
PPT1_P50897_152_CPGESSHICDFIR (UniProt P50897) | -0.202 | -0.114
PRAG1_Q86YV5_1087_DPVPALPTHPPAQEQDCVVVITR (UniProt Q86YV5) | 0.0639 | 0.257
PPP6R2_O75170_769_CSSPVDTECSHAEGSR (UniProt O75170) | -0.143 | 0.213
PPP1R12A_O14974_48_VKFDDGAVFLAACSSGDTDEVLK (UniProt O14974) | 0.0931 | -0.22
PREX1_Q8TCU6_867_CHVLEK (UniProt Q8TCU6) | 0.0843 | -0.0476
PPP4R3A_Q6IN85_135_DPSVDITQDLVDESEEERFDDMSSPGLELPSCELSR (UniProt Q6IN85) | -0.303 | -0.256
PPIP5K2_O43314_298_VCLAFK (UniProt O43314) | 0.00558 | 0.495
PPP4R3A_Q6IN85_180_LLELFHVCEDLENIEGLHHLYEIIK (UniProt Q6IN85) | 0.46 | 0.616
PPT1_P50897_45+46_ALQHLDPPAPLPLVIWHGMGDSCCNPLSMGAIK (UniProt P50897) | -0.126 | -0.385
PPT1_P50897_152_CPGESSHICDFIRK (UniProt P50897) | -0.178 | -0.505
PPIP5K2_O43314_488_VQLTYLPHGCPK (UniProt O43314) | -0.0857 | -0.304
PPP4R1_Q8TF05_117_AELMEQVPHIALFCQENRPSIPYAFSK (UniProt Q8TF05) | -0.258 | 0.035
PPP4R1_Q8TF05_174_VCPVLIELTAPDSNDDVK (UniProt Q8TF05) | -0.0307 | 0.197
PPP4R2_Q9NY27_22+30_EVCPVLDQFLCHVAK (UniProt Q9NY27) | -0.437 | -0.442
PPM1B_O75688_272_LEVSDDLENVCNWVVDTCLHK (UniProt O75688) | 0.126 | 0.113

Target | probe-labelled cysteine peptide fold change (10 µM) | probe-labelled cysteine peptide fold change (50 µM)
PPM1B_O75688_279_SRLEVSDDLENVCNWVVDTCLHK (UniProt O75688) | 0.264 | 0.245
PPP4R1_Q8TF05_566_SDLQDELDINELPNCK (UniProt Q8TF05) | -0.348 | -0.171
PPM1G_O15355_351_CVVSEAGK (UniProt O15355) | -0.178 | -0.105
PREX1_Q8TCU6_1173_DSYSECNSNR (UniProt Q8TCU6) | 0.634 | 1.39
PREX1_Q8TCU6_234_TVCSNINETK (UniProt Q8TCU6) | -0.00661 | -0.0348
PPP2R5C_Q13362_513_ALEAHCR (UniProt Q13362) | -0.164 | -0.436
PPP4C_P60510_193_KQEVPHDGPMCDLLWSDPEDTTGWGVSPR (UniProt P60510) | -0.0839 | -0.279
PPP1CB_P62140_61_ICGDIHGQYTDLLR (UniProt P62140) | 0.129 | 0.183
PRC1_O43663_136_LLQEQDQELCEILCMPHYDIDSASVPSLEELNQFR (UniProt O43663) | -0.0146 | -0.0476
PPP6R3_Q5H9R7_431_CQLIER (UniProt Q5H9R7) | 0.142 | 0.135
PPOX_P50336_410_EMPSHCLVHLHK (UniProt P50336) | 0.00157 | -0.359
PREB_Q9HCU5_128_KCGAETQHEGLELR (UniProt Q9HCU5) | -0.113 | -0.181
PPP2R1A_P30153_317_EFCENLSADCR (UniProt P30153) | -0.168 | 0.0856
PREX1_Q8TCU6_120_DFLAALEYCLHPEPQSQHELGNVFLK (UniProt Q8TCU6) | 0.306 | 0.0629
PRDX2_P32119_172_LVQAFQYTDEHGEVCPAGWKPGSDTIK (UniProt P32119) | -0.0956 | 0.443
PPP2R1B_P30154_389_DECPDVR (UniProt P30154) | 0.0244 | 0.231
PPP2R1B_P30154_389_ENTIEHLLPLFLAQLKDECPDVR (UniProt P30154) | -0.162 | -0.525
PRDX2_P32119_70_KLGCEVLGVSVDSQFTHLAWINTPR (UniProt P32119) | 0.0933 | 0.0312
PPP4C_P60510_162_IFCVHGGLSPSIQTLDQIR (UniProt P60510) | -0.0185 | 0.298
PRDX2_P32119_70_LGCEVLGVSVDSQFTHLAWINTPR (UniProt P32119) | 0.0461 | 0.163
PRDX6_P30041_91_DINAYNCEEPTEKLPFPIIDDR (UniProt P30041) | -0.373 | -1.02

Target | probe-labelled cysteine peptide fold change (10 µM) | probe-labelled cysteine peptide fold change (50 µM)
PPP1R10_Q96QC0_912_GHDGGHSHGGDMSNRPVCR (UniProt Q96QC0) | 0.0852 | -0.0876
PRAM1_Q96QH2_629_RGEILEVIEFTSNEEMLCR (UniProt Q96QH2) | 0.11 | 0.389
PREB_Q9HCU5_378_CQLHLLPSR (UniProt Q9HCU5) | 0.0644 | 0.31
PPP6R2_O75170_37_EHVTLQELMDEDDILQECK (UniProt O75170) | 0.00336 | 0.121
PPP5C_P53041_382_NRQPPDSGPMCDLLWSDPQPQNGR (UniProt P53041) | -0.163 | 0.0203
PPP1CC_P36873_202_IMRPTDVPDQGLLCDLLWSDPDK (UniProt P36873) | -0.146 | 0.269
PPP2R1A_P30153_377_DNTIEHLLPLFLAQLKDECPEVR (UniProt P30153) | -0.217 | -0.731
PPP5C_P53041_11_AMAEGERTECAEPPRDEPPADGALK (UniProt P53041) | -0.251 | -0.246
PPP1CB_P62140_201_IMRPTDVPDTGLLCDLLWSDPDKDVQGWGENDR (UniProt P62140) | -0.0477 | -0.347
PREB_Q9HCU5_378_CQLHLLPSRR (UniProt Q9HCU5) | 0.0552 | 0.335
PPP1R12C_Q9BZL4_297_LLAEHGGGMDSLTHAGQRPCDLADEEVLSLLEELAR (UniProt Q9BZL4) | 0.04 | -0.442
PPP1R21_Q6ZMI0_351_TFSEHLTSYICFLR (UniProt Q6ZMI0) | -0.214 | 0.315
PPP1CB_P62140_244_FLNRHDLDLICR (UniProt P62140) | 0.0374 | -0.0314
PPP3R1_P63098_154_ISFEEFCAVVGGLDIHK (UniProt P63098) | 0.193 | 0.173
PPP2CB_P62714_20_ELDQWVEQLNECK (UniProt P62714) | -0.0338 | 0.11
PREB_Q9HCU5_161_VVCFNHDNTLLATGGTDGYVR (UniProt Q9HCU5) | 0.282 | 0.269
PRC1_O43663_531_LPPSGSKPVAASTCSGK (UniProt O43663) | 0.383 | 0.215
PPP2R1B_P30154_524_MTTLFCINALSEACGQEITTK (UniProt P30154) | 0.149 | 0.116
